Results reported in patent US9333272B2 (Bracco Imaging SpA, priority 2006, dated 2016).

What was measured:
[1] = general procedure: Fmoc solid-phase peptide synthesis; Fmoc-PAL-PEG-PS resin; HATU/DIEA; DIC/HOBt; HBTU/HOBt/DIPEA
[2] = peptide synthesis; details: whole synthesis
[3] = whole synthesis, scale 130 umol

Aloc-RWQPC*PAESWTFC*WDPGGGK(CF5)-NH2
conjugation yield ([1]; conjugation step): 62.8%

Aloc-RWQPC*PWESWTFC*WDPGGGK-NH2 Cyclic (5→13) Peptide
isolated yield [2]: 21%

RWQPC*PAESWTFC*WDPGGGK(CF5)-NH2
step yield ([1]; late stage modification step): 60.4%

Ac-WQPC*PAESWTFC*WDPGGGK(JJ)-NH2 Cyclic (4→12) Peptide
isolated mass [1, 3]: 42 mg
isolated yield [1, 3]: 13%
